Article PMC5675994
Results are given in words; binding and its absence hold for the method and conditions named. In cells and extracts the contact can be indirect. Here binding means that the protein was enriched with, or labelled near, the bait; the list need not be complete. For some of these results: Tags and fused reporters may be left off the sequences shown.

Protein sequences, listed by entry. Tags and fused reporters are not part of them. Lines headed by an entry give the natural chain unless they say otherwise; changes in a name come on top.
UniProt Q07540: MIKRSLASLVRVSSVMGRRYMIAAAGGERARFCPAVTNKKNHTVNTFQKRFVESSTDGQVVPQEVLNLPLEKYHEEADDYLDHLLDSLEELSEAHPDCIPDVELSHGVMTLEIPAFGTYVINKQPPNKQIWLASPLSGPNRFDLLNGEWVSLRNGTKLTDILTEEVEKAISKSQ

Tests used:
[1] = molecular target: T1, Nfs1-His6 (S. cerevisiae) (UniProt P25374); assay: affinity purification with mass spectrometry; Nfs1-His6 held on Ni-NTA superflow agarose from sonicated, cleared lysate of isolated mitochondria of the Gal-Nfs1-His6 yeast strain; 50 mM TrisCl pH 7.5, 80 mM KCl, 10% glycerol, wash 40 mM imidazole, elution 400 mM imidazole; eluate analysed by LC-MS/MS
T1 sequence: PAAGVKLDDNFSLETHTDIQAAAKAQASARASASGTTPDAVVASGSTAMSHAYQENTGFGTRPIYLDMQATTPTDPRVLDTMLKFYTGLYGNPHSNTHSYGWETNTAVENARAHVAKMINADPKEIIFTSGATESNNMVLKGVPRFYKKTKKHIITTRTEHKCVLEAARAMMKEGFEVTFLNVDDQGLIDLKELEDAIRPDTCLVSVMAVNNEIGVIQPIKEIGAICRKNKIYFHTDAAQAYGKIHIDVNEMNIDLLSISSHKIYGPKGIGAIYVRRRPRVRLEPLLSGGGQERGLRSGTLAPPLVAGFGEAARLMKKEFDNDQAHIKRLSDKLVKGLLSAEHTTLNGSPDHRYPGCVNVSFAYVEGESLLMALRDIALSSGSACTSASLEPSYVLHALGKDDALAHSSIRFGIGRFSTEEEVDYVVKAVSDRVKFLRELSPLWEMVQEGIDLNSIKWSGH

[2] = molecular target: Yfh1-His6 (S. cerevisiae) (UniProt Q07540); assay: affinity purification with mass spectrometry; Yfh1-His6 held on Ni-NTA superflow agarose from French-press lysate (108,000xg supernatant) of isolated mitochondria of the Yfh1-His6 yeast strain; 50 mM TrisCl pH 7.5, 80 mM KCl, 10% glycerol, wash 40 mM imidazole with 0.1% Triton X-100, elution 400 mM imidazole; eluate analysed by LC-MS/MS

B1: Nicotinamide-nucleotide adenylyltransferase 1 (protein, UniProt Q06178 1-401)
chain: MDPTRAPDFKPPSADEELIPPPDPESKIPKSIPIIPYVLADANSSIDAPFNIKRKKKHPKHHHHHHHSRKEGNDKKHQHIPLNQDDFQPLSAEVSSEDDDADFRSKERYGSDSTTESETRGVQKYQIADLEEVPHGIVRQARTLEDYEFPSHRLSKKLLDPNKLPLVIVACGSFSPITYLHLRMFEMALDAISEQTRFEVIGGYYSPVSDNYQKQGLAPSYHRVRMCELACERTSSWLMVDAWESLQPSYTRTAKVLDHFNHEINIKRGGVATVTGEKIGVKIMLLAGGDLIESMGEPNVWADADLHHILGNYGCLIVERTGSDVRSFLLSHDIMYEHRRNILIIKQLIYNDISSTKVRLFIRRAMSVQYLLPNSVIRYIQEHRLYVDQTEPVKQVLGNKE
binding [1]: binds
binding [2]: binds

B2: RNA-binding protein SRO9 (protein, UniProt P25567 1-434)
chain: MSAETAAANTATAPVPEVQEQESSKSKQVNLTPAPLPTSSPWKLAPTEIPVSTISIEDLDATRKKKNRTPTPKSSTATKWVPIKASITVSGTKRSGSKNGASNGNSNKSKNNKTAASSTSSSNANRKKKHHQHNAKKQQQMKKDGFESAVGEEDSKDATSQENGQSTQQQQPPHHRNHHHSHHHNSNGPQRRKFHNSNNAGMPQNQGFPPQFKPYQGRNARNNNNNRSKYHNHFHHNQQHPQQPMVKLQQQFYPVQPVLMAINNIARQIEYYFSEENLTVDNYLRSKLSKDGFAPLSLISKFYRVVNMSFGGDTNLILAALREIVANEAATVNVAEGTLAAKEGDNVTGEAKEPSPLDKYFVRSKSWSNWLPETFETEINIEKELVGDALDQFMISLPPVPQQEEESSTELASQEQETKEDSAPVAAGESESSL
binding [1]: binds
binding [2]: binds

B3: Putative pterin-4-alpha-carbinolamine dehydratase (protein, UniProt P38744 1-120)
chain: MHNKIVRIASSALTGGKLLEKLKPLTRWEVQWDPNKTKCLGITREVTFKDYETTWAFLTRVSMRSHLWGHHPLIHTSYTWVKLELHTHDIDPKDGAHSQLSDIDVRMAKRIDSYIDEMTT
binding [1]: binds
binding [2]: binds

B4: Potassium-activated aldehyde dehydrogenase, mitochondrial (protein, UniProt P46367 25-519)
chain: SHLPMTVPIKLPNGLEYEQPTGLFINNKFVPSKQNKTFEVINPSTEEEICHIYEGREDDVEEAVQAADRAFSNGSWNGIDPIDRGKALYRLAELIEQDKDVIASIETLDNGKAISSSRGDVDLVINYLKSSAGFADKIDGRMIDTGRTHFSYTKRQPLGVCGQIIPWNFPLLMWAWKIAPALVTGNTVVLKTAESTPLSALYVSKYIPQAGIPPGVINIVSGFGKIVGEAITNHPKIKKVAFTGSTATGRHIYQSAAAGLKKVTLELGGKSPNIVFADAELKKAVQNIILGIYYNSGEVCCAGSRVYVEESIYDKFIEEFKAASESIKVGDPFDESTFQGAQTSQMQLNKILKYVDIGKNEGATLITGGERLGSKGYFIKPTVFGDVKEDMRIVKEEIFGPVVTVTKFKSADEVINMANDSEYGLAAGIHTSNINTALKVADRVNAGTVWINTYNDFHHAVPFGGFNASGLGREMSVDALQNYLQVKAVRAKLDE
binding [1]: binds
binding [2]: binds

B5: Cytochrome b2, mitochondrial (protein, UniProt P00175 81-591)
chain: EPKLDMNKQKISPAEVAKHNKPDDCWVVINGYVYDLTRFLPNHPGGQDVIKFNAGKDVTAIFEPLHAPNVIDKYIAPEKKLGPLQGSMPPELVCPPYAPGETKEDIARKEQLKSLLPPLDNIINLYDFEYLASQTLTKQAWAYYSSGANDEVTHRENHNAYHRIFFKPKILVDVRKVDISTDMLGSHVDVPFYVSATALCKLGNPLEGEKDVARGCGQGVTKVPQMISTLASCSPEEIIEAAPSDKQIQWYQLYVNSDRKITDDLVKNVEKLGVKALFVTVDAPSLGQREKDMKLKFSNTKAGPKAMKKTNVEESQGASRALSKFIDPSLTWKDIEELKKKTKLPIVIKGVQRTEDVIKAAEIGVSGVVLSNHGGRQLDFSRAPIEVLAETMPILEQRNLKDKLEVFVDGGVRRGTDVLKALCLGAKGVGLGRPFLYANSCYGRNGVEKAIEILRDEIEMSMRLLGVTSIAELKPDLLDLSTLKARTVGVPNDVLYNEVYEGPTLTEFEDA
binding [1]: binds
binding [2]: binds

B6: Carbon catabolite-derepressing protein kinase (protein, UniProt P06782 1-633)
chain: MSSNNNTNTAPANANSSHHHHHHHHHHHHHGHGGSNSTLNNPKSSLADGAHIGNYQIVKTLGEGSFGKVKLAYHTTTGQKVALKIINKKVLAKSDMQGRIEREISYLRLLRHPHIIKLYDVIKSKDEIIMVIEYAGNELFDYIVQRDKMSEQEARRFFQQIISAVEYCHRHKIVHRDLKPENLLLDEHLNVKIADFGLSNIMTDGNFLKTSCGSPNYAAPEVISGKLYAGPEVDVWSCGVILYVMLCRRLPFDDESIPVLFKNISNGVYTLPKFLSPGAAGLIKRMLIVNPLNRISIHEIMQDDWFKVDLPEYLLPPDLKPHPEEENENNDSKKDGSSPDNDEIDDNLVNILSSTMGYEKDEIYESLESSEDTPAFNEIRDAYMLIKENKSLIKDMKANKSVSDELDTFLSQSPPTFQQQSKSHQKSQVDHETAKQHARRMASAITQQRTYHQSPFMDQYKEEDSTVSILPTSLPQIHRANMLAQGSPAASKISPLVTKKSKTRWHFGIRSRSYPLDVMGEIYIALKNLGAEWAKPSEEDLWTIKLRWKYDIGNKTNTNEKIPDLMKMVIQLFQIETNNYLVDFKFDGWESSYGDDTTVSNISEDEMSTFSAYPFLHLTTKLIMELAVNSQSN
binding [1]: binds
binding [2]: binds

B7: Ketol-acid reductoisomerase, mitochondrial (protein, UniProt P06168 48-395)
chain: LKQINFGGTVETVYERADWPREKLLDYFKNDTFALIGYGSQGYGQGLNLRDNGLNVIIGVRKDGASWKAAIEDGWVPGKNLFTVEDAIKRGSYVMNLLSDAAQSETWPAIKPLLTKGKTLYFSHGFSPVFKDLTHVEPPKDLDVILVAPKGSGRTVRSLFKEGRGINSSYAVWNDVTGKAHEKAQALAVAIGSGYVYQTTFEREVNSDLYGERGCLMGGIHGMFLAQYDVLRENGHSPSEAFNETVEEATQSLYPLIGKYGMDYMYDACSTTARRGALDWYPIFKNALKPVFQDLYESTKNGTETKRSLEFNSQPDYREKLEKELDTIRNMEIWKVGKEVRKLRPENQ
binding [1]: binds
binding [2]: binds

B8: Citrate synthase, mitochondrial (protein, UniProt P00890 38-479)
chain: SSASEQTLKERFAEIIPAKAEEIKKFKKEHGKTVIGEVLLEQAYGGMRGIKGLVWEGSVLDPEEGIRFRGRTIPEIQRELPKAEGSTEPLPEALFWLLLTGEIPTDAQVKALSADLAARSEIPEHVIQLLDSLPKDLHPMAQFSIAVTALESESKFAKAYAQGVSKKEYWSYTFEDSLDLLGKLPVIASKIYRNVFKDGKITSTDPNADYGKNLAQLLGYENKDFIDLMRLYLTIHSDHEGGNVSAHTTHLVGSALSSPYLSLAAGLNGLAGPLHGRANQEVLEWLFKLREEVKGDYSKETIEKYLWDTLNAGRVVPGYGHAVLRKTDPRYTAQREFALKHFPDYELFKLVSTIYEVAPGVLTKHGKTKNPWPNVDSHSGVLLQYYGLTEASFYTVLFGVARAIGVLPQLIIDRAVGAPIERPKSFSTEKYKELVKKIESKN
binding [1]: binds
binding [2]: binds

B9: Serine hydroxymethyltransferase, mitochondrial (protein, UniProt P37292 21-490)
chain: LTSGAQSLVSKPVSEGDPEMFDILQQERHRQKHSITLIPSENFTSKAVMDLLGSELQNKYSEGYPGERYYGGNEIIDKSESLCQARALELYGLDPAKWGVNVQPLSGAPANLYVYSAIMNVGERLMGLDLPDGGHLSHGYQLKSGTPISFISKYFQSMPYHVDHTTGLIDYDNLQVLAKAFRPKVIVAGTSAYSRLIDYARFKEISQGCGAYLMSDMAHISGLVAANVVPSPFEHSDIVTTTTHKSLRGPRGAMIFFRKGIKSVTKKGKEIPYELEKKINFSVFPGHQGGPHNHTIGAMAVALKQAMSPEFKEYQQKIVDNSKWFAQELTKMGYKLVSGGTDNHLIVIDLSGTQVDGARVETILSALNIAANKNTIPGDKSALFPSGLRIGTPAMTTRGFGREEFSQVAKYIDSAVKLAENLKTLEPTTKLDARSRLNEFKKLCNESSEVAALSGEISKWVGQYPVPGDI
binding [1]: binds
binding [2]: binds

B10: Uncharacterized protein YGR266W (protein, UniProt P53326 1-701)
chain: MHATNWFDDWNPEALYRDDVTGCDDCSETSPIPKSGIICGPILRLINMDFKEKTYEGSIMVVVRGEENFPKITYQLGPSLPSEDEDIEVNEAFFEGKLFHKDILKDDNIWFYRYEIKLPMSNYEQMVKYAVDGTMEPHYRFFVPSFTQNSNVISYSCNGFSLSVDTSKFKGSLWYDVLKKHRYVHYHAILGGGDQIYSDNIKLHAPNLKAWLETKDPIKKYNTQTTEETKEQIRQFYLEHYLNWYGYGHWYGSTPKSKTTQKCFVKSLACIPAINVWDDHDIIDGYGSYNDSFMKTENFLTVGRMAYRYYMLFQQHVSASKQDGDEYAYLKSKQWILGNEKGSSYIGERSHSIFSWLGPKMAMLGLDCRTERKLHEIFSERSYSLIWERVEREIKNLKGGHLLLMLGIPIAYPRLVWLEWLFTSKLLAPIKYLSKKGIFASGFVNEFNGDVELLDDLNDHWCARHHKKERNYLIMKLQDIGAKYGVRITILSGDVHLASVGRFRAKIHRHHLIMSEEKEKENTRIIEEPTKDVRLIFNIIASAIVNTPPPDAMATLLQKRCRLHHFDLETDEDAVPIFAKEVDGVHKRKESCFMNKRNWSDIIPIENLLNNPQLSKELGVKVGDIVIPGIITEQQKLQKLENDDQINSYPVTSGGLFTTIHVERDANQTNSQTVSYCLPIPELTVTCERLSHKGIKHLNIT
binding [1]: binds
binding [2]: binds

B11: GTP cyclohydrolase 1 (protein, UniProt P51601 1-243)
chain: MHNIQLVQEIERHETPLNIRPTSPYTLNPPVERDGFSWPSVGTRQRAEETEEEEKERIQRISGAIKTILTELGEDVNREGLLDTPQRYAKAMLYFTKGYQTNIMDDVIKNAVFEEDHDEMVIVRDIEIYSLCEHHLVPFFGKVHIGYIPNKKVIGLSKLARLAEMYARRLQVQERLTKQIAMALSDILKPLGVAVVMEASHMCMVSRGIQKTGSSTVTSCMLGGFRAHKTREEFLTLLGRRSI
binding [1]: binds
binding [2]: binds
